Chains of the proteins cited; added tags and fusions are not shown. Residues count along the entry.
UniProt P06239, 2-509: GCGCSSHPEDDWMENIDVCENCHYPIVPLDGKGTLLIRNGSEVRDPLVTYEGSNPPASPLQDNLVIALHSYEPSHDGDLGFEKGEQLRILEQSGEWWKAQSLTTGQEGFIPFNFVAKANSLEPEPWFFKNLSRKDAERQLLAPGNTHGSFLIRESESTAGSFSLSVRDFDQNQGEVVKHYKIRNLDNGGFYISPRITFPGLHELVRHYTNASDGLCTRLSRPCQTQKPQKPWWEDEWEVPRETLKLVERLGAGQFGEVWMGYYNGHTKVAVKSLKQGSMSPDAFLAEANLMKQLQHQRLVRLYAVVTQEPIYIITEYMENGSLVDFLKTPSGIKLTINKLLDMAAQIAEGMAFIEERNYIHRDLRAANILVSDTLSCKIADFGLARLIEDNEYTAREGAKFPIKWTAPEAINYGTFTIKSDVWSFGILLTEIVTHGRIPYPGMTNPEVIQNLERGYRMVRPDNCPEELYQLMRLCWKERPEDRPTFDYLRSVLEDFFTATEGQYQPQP

According to patent US5998596:

Legend:
Experiment in all cases: inhibition of the protein
cdc-2 kinase = cdc-2 kinase (UniProt P06493); settings: PS, two linkages at each of 5' and 3' ends, rest phosphodiester; casein substrate; purified native protein; protein details: immunoprecipitated from K562 cells; single-stranded DNA
[1] = target: LCK tyrosine kinase (Homo sapiens) (UniProt P06239); settings: PS, two linkages at each of 5' and 3' ends, rest phosphodiester; purified native protein; single-stranded DNA
[2] = target: SRC tyrosine kinase (c-Src) (UniProt P12931); settings: PS, two linkages at each of 5' and 3' ends, rest phosphodiester; enolase as substrate; purified native protein; protein details: immunoprecipitated from K562 cells; single-stranded DNA
EGF receptor (EGFR) = EGF receptor (EGFR) (UniProt P00533); settings: PS, two linkages at each of 5' and 3' ends, rest phosphodiester; autophosphorylation, 30 C; purified native protein; protein details: immunoprecipitated from A431 cells with clone LA1; single-stranded DNA

“GTCCACCATGGCGCGGCCGGC [ODN1 (BCR-AS), phosphorothioate capped]” was tested, and the IC50 (cdc-2 kinase) was > 50 µM, the IC50 [1] was > 50 µM and the IC50 [2] was > 100 µM. The IC50 (EGF receptor (EGFR)) was > 100 µM.
